Measurements as given in the supplement of paper PMC10849652.
This is one part of the list.

Chains of the proteins cited; added tags and fusions are not shown. Lines headed by an entry give the natural chain unless they say otherwise; changes in a name come on top.
UniProt O15197: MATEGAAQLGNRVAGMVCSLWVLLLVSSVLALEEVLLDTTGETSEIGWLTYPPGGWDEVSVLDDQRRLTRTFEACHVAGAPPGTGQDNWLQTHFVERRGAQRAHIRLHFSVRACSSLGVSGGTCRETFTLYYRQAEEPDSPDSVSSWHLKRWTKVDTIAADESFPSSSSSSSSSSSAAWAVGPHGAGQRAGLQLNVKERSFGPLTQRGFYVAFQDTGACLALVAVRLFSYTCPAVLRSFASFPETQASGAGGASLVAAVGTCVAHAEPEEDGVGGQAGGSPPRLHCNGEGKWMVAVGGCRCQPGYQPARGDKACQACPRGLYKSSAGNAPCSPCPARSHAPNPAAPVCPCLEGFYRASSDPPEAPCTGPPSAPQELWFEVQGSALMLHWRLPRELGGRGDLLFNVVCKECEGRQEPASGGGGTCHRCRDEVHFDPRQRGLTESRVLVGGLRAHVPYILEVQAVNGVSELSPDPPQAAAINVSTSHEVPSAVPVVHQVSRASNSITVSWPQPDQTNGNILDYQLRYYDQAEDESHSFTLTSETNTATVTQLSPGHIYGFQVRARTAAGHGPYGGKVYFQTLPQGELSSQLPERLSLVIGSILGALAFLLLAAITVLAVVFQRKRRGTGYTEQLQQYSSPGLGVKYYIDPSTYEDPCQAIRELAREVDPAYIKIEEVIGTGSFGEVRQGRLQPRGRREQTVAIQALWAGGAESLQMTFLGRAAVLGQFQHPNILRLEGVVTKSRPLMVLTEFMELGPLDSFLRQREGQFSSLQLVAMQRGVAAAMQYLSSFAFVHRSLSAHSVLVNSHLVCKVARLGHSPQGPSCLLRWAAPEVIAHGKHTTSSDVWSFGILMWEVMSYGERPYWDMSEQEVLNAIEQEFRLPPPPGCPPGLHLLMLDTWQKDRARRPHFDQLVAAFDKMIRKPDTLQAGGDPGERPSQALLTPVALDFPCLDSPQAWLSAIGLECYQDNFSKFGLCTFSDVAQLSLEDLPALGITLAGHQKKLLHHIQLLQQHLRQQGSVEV
UniProt Q04637, whole entry, looked up: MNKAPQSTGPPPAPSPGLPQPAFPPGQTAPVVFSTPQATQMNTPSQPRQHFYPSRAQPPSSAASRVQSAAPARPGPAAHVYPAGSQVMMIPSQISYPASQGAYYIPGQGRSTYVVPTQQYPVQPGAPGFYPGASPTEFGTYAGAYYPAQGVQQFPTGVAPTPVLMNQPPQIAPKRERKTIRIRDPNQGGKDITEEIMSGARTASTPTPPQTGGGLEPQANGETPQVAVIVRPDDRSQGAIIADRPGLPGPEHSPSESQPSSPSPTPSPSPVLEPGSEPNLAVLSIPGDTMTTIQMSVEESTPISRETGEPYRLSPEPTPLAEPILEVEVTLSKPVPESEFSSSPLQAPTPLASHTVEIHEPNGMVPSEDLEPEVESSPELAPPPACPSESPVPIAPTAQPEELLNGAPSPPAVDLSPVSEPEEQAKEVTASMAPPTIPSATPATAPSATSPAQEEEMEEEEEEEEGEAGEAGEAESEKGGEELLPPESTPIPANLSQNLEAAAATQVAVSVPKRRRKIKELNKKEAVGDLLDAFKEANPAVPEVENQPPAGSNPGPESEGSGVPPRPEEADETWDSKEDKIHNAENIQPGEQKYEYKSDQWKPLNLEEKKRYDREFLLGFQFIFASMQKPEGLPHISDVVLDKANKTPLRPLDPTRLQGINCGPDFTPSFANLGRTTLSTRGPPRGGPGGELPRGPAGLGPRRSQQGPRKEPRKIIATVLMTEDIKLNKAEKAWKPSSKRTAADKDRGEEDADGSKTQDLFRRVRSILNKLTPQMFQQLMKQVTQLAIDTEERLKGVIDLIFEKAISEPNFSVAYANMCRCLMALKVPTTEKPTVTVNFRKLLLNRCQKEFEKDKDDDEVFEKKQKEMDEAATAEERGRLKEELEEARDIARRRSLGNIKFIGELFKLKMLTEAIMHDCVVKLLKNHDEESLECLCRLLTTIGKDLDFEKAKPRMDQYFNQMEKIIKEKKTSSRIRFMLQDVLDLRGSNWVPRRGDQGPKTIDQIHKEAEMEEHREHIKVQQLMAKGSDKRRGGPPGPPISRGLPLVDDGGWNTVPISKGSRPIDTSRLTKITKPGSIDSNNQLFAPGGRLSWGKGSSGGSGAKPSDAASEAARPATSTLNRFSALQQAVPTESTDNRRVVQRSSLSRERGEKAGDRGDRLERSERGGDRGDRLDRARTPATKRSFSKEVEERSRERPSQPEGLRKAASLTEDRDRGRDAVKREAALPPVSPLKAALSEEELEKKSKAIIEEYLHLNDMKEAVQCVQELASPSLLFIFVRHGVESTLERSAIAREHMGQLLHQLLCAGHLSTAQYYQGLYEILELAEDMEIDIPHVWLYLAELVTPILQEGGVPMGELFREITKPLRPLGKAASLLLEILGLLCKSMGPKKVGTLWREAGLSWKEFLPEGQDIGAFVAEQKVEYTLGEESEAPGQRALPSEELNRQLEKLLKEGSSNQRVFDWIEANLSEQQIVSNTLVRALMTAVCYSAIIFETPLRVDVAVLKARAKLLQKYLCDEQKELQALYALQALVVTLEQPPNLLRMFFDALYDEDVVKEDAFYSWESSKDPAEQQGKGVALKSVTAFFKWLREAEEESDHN
UniProt Q9NQZ7: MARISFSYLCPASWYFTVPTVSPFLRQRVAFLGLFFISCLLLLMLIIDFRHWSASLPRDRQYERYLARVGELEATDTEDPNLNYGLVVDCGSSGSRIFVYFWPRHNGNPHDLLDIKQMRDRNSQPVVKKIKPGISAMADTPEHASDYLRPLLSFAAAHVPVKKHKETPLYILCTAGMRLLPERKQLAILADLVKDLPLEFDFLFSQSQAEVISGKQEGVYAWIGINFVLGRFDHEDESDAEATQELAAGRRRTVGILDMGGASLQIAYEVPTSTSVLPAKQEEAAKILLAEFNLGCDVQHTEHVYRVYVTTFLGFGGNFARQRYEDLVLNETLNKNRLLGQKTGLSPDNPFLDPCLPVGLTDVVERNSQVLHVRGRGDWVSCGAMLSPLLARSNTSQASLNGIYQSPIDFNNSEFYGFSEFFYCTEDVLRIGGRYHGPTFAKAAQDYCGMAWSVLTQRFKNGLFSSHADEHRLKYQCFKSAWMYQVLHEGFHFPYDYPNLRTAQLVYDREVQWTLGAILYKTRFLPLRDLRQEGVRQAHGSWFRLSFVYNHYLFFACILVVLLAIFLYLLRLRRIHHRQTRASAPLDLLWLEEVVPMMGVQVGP
UniProt Q52LR7, whole entry, looked up: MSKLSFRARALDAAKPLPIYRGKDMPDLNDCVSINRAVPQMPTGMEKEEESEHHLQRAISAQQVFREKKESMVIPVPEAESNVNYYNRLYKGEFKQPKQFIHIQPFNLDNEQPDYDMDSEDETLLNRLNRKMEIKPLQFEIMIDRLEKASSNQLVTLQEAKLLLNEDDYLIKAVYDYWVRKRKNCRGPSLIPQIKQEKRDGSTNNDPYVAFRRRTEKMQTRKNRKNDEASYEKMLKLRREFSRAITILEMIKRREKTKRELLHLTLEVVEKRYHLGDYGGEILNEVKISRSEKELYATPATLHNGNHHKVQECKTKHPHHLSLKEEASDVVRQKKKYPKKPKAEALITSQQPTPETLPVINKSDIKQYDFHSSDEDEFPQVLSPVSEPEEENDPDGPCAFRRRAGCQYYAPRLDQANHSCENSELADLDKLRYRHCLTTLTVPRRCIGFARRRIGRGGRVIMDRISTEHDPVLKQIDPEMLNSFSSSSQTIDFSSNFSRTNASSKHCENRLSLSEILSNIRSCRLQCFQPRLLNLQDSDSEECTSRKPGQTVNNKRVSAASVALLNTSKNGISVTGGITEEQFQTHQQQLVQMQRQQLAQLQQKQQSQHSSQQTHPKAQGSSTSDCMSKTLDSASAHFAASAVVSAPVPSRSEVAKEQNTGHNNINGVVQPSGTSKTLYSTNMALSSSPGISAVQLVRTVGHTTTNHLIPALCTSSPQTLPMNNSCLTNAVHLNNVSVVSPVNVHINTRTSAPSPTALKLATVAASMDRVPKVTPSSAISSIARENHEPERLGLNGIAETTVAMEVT
UniProt O75822, whole entry, looked up: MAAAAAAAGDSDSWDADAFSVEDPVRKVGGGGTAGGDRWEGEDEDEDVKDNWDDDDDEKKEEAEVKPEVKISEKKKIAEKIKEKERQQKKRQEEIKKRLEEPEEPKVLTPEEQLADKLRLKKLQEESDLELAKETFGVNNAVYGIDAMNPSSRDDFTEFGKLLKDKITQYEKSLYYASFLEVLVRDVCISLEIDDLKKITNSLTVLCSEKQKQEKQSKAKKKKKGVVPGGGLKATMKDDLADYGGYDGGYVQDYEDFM

Key:
Experiment in all cases: log2 fold change, soluble protein after heating vs DMSO (PISA); higher = thermal stabilisation; K562 lysate, 10 uM; active = over 0.2 and 3.5 SD of the protein, either way, in both replicates (recomputed)
[1] = compound: C/C(=N\NC(=O)C1=CC(=CC=C1)S(=O)(=O)N2CCOCC2)/C3=C(C=CC(=C3)Cl)O
Summary of the method: (§1)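 The values are log-two fold changes in thermal stability compared with solvent controls and come from duplicates. They were obtained by TMTpro 16plex LC-MS/MS, with channel sums equalised, on the supernatant after 21,000xg for 90 min. That supernatant came from crude K562 extract at 1 mg/mL protein treated with 10 μM compound for 30 min, heated for 3 min across 48°C-58°C, pooled and brought to 0.5% NP-40 at 4°C.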

[2] = compound: C1=CC2=C(C=CC(=C2)/C=C\3/C(=O)NC(=NCC4=CC=CS4)S3)N=C1
Summary of the method: as §1

[3] = compound: C1=CC=C(C=C1)C2=NC(=C(N2)C3=CC=NC=C3)C4=CC(=C(C=C4)Cl)O
Summary of the method: as §1

[4] = compound: C1=CC=C2C(=C1)C3=NNC4=CC=CC(=C43)C2=O
Summary of the method: as §1

[5] = compound: C1CCN(C1)C(=O)NC2=CC=CC(=C2)NC3=NC=C(C(=N3)NCCC4=CN=CN4)Br
Summary of the method: as §1

[6] = compound: C1CN(CCC1(CC2=CC=C(C=C2)Cl)N)C3=NC=NC4=C3C=CN4
Summary of the method: as §1

IRAK-1-4 Inhibitor I = compound: C1COCCN1CCN2C3=CC=CC=C3N=C2NC(=O)C4=CC(=CC=C4)[N+](=O)[O-] [IRAK-1-4 Inhibitor I]
Summary of the method: as §1

ralimetinib = compound: CC(C)(C)Cn1c(N)nc2ccc(-c3[nH]c(C(C)(C)C)nc3-c3ccc(F)cc3)nc21 [ralimetinib]
Summary of the method: as §1

[7] = compound: CC(C)(O)CC(=O)NCCn1ccc2ncnc(Nc3ccc(Oc4cccc(C(F)(F)F)c4)c(Cl)c3)c21
Summary of the method: as §1

[8] = compound: CC1=C(C(CC(=O)N1)C2=CC=C(C=C2)C(F)(F)F)C(=O)NC3=C(C=C4C(=C3)C=NN4)F
Summary of the method: as §1

[9] = compound: CC1=C(C=C(C=C1)NC(=O)C2=CC(=CC=C2)N(C)C)NC(=O)C3=CC=C(C=C3)O
Summary of the method: as §1

[10] = compound: CC(=O)c1cnc2ccc(-c3cc(Cl)c(O)c(Cl)c3)nc2c1N[C@H]1CC[C@H](CN(C)C)CC1
Summary of the method: as §1

[11] = compound: CC1=CC=C(C=C1)SC2=C3C=C(SC3=CN=C2)C(=O)N
Summary of the method: as §1

erlotinib = compound: C#Cc1cccc(Nc2ncnc3cc(OCCOC)c(OCCOC)cc23)c1 [erlotinib]
Summary of the method: as §1

[12] = compound: C1=CC(=CC=C1C2=NC3=C(N2)C=C(C=C3)C(=O)N)OC4=CC=C(C=C4)Cl
Summary of the method: as §1

[13] = compound: C1=CC2=NC=CN=C2C=C1/C=C/3\C(=O)NC(=O)S3
Summary of the method: as §1

ibrutinib = compound: C=CC(=O)N1CCC[C@@H](n2nc(-c3ccc(Oc4ccccc4)cc3)c3c(N)ncnc32)C1 [ibrutinib]
Summary of the method: as §1

[14] = compound: CC(C)C1=C2N=C(C=C(N2N=C1)NCC3=CC=CC=C3)NCCCCCCN
Summary of the method: as §1

[15] = compound: CC1=C(C2=C(C=C1)C(=O)C3=CC=CC=C3N2CCCN)C
Summary of the method: as §1

[16] = compound: CC1=C(C=C(C=C1)NC(=O)C2=CC(=CC=C2)C(C)(C)C#N)NC3=CC4=C(C=C3)N=CN(C4=O)C
Summary of the method: as §1

Measured: log2 fold change

EPHB6 (UniProt O15197)
inactive: [1] 0.035 | [2] -0.098 | [3] 0.246 | [4] 0.011 | [5] 0.032 | [6] -0.064 | IRAK-1-4 Inhibitor I 0.109 | ralimetinib -0.012 | [7] 0.023 | [8] 0.059 | [9] -0.217

EIF4G1 isoform 5 (UniProt Q04637)
inactive: [10] -0.084 | [8] -0.037 | [11] -0.014

ENTPD7 (UniProt Q9NQZ7)
inactive: [1] -0.042 | [2] 0.105 | [4] -0.03 | [5] 0.072 | [6] 0.011 | [10] 0.155 | [8] -0.049 | [11] -0.239

ELOF1 (UniProt P60002)
inactive: erlotinib -0.003 | [12] 0.012 | [13] 0.067 | [3] 0.225 | IRAK-1-4 Inhibitor I -0.087 | ibrutinib 0.062 | [10] 0.039 | ralimetinib -0.157 | [7] 0.061 | [14] -0.08 | [15] 0.018 | [16] 0.416 | [9] 0.01 | [11] -0.029

EIF3G (UniProt K7ENA8)
inactive: [13] 0.065 | ibrutinib 0.111 | [10] 0.135 | [15] 0.088 | [11] 0.022

EPC2 (UniProt Q52LR7)
inactive: [1] -0.379 | [2] -0.061 | [13] -0.05 | [4] -0.068 | [5] -0.027 | [6] -0.097 | ibrutinib 0.126 | [10] -0.047 | [15] -0.018 | [16] 0.039 | [11] 0.041

EIF3J isoform 2 (UniProt O75822)
inactive: [1] 0.047 | [2] 0.005 | [3] -0.001 | [4] -0.065 | [5] -0.073 | [6] 0.101 | IRAK-1-4 Inhibitor I 0.007 | [10] -0.017 | ralimetinib -0.004 | [7] 0.012 | [9] 0.065 | [11] -0.013
